Reference: the supplement of paper PMC10849652
The list shows a part of the results.

Sequences of proteins named here, by UniProt entry; tags and fusion partners are left off. A change or cut given only in a name is not applied to a line headed by its entry.
UniProt Q9UH36: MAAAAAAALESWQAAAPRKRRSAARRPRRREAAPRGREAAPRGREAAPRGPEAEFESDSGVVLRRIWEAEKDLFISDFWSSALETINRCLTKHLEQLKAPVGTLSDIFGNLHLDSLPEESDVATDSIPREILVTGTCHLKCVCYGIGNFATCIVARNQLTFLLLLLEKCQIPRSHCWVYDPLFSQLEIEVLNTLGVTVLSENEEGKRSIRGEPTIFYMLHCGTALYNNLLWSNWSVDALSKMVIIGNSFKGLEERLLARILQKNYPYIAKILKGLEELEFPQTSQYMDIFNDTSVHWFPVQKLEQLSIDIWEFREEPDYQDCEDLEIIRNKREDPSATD
UniProt Q8IZP2: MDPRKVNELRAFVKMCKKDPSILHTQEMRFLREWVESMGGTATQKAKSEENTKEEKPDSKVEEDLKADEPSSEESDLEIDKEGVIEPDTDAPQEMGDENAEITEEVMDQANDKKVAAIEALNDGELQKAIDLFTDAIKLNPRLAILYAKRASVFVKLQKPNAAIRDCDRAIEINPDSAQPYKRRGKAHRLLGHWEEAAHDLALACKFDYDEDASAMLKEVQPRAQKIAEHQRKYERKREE
UniProt P43308: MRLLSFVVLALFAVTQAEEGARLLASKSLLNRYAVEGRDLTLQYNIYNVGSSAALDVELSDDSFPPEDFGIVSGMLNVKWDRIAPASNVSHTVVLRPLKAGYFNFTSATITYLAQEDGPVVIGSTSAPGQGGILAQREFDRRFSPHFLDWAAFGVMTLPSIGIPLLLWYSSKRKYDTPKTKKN
UniProt Q9H8P0: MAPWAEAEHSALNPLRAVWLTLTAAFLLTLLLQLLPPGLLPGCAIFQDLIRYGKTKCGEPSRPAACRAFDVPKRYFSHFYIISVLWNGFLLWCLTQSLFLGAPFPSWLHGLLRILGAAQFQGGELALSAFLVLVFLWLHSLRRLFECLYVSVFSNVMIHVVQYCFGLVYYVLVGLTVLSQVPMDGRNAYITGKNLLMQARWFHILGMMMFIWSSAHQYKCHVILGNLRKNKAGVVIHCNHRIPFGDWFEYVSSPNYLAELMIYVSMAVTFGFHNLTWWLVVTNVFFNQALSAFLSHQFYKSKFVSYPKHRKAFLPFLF
UniProt O43278: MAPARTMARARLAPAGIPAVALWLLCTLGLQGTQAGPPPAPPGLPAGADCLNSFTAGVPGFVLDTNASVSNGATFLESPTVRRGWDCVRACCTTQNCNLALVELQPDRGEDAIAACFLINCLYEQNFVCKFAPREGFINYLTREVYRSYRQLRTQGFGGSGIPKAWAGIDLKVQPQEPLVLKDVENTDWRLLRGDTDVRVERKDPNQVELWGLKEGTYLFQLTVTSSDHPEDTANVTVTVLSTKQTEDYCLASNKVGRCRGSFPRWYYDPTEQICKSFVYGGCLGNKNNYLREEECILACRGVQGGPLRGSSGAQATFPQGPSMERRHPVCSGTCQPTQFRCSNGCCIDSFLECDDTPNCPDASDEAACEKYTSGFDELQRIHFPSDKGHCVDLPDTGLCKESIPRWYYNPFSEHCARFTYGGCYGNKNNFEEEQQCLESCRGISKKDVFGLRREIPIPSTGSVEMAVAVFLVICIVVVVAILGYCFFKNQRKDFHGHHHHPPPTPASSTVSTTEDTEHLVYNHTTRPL
UniProt O43597: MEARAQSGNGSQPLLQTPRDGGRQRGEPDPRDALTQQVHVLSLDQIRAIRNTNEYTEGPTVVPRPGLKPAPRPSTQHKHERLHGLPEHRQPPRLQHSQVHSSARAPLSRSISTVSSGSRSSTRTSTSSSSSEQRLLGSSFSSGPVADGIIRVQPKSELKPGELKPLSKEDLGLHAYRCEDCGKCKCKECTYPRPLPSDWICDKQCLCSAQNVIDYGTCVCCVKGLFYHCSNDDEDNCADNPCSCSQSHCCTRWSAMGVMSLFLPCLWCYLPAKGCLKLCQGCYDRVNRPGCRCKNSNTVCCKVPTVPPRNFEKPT
UniProt Q01082, whole entry, looked up: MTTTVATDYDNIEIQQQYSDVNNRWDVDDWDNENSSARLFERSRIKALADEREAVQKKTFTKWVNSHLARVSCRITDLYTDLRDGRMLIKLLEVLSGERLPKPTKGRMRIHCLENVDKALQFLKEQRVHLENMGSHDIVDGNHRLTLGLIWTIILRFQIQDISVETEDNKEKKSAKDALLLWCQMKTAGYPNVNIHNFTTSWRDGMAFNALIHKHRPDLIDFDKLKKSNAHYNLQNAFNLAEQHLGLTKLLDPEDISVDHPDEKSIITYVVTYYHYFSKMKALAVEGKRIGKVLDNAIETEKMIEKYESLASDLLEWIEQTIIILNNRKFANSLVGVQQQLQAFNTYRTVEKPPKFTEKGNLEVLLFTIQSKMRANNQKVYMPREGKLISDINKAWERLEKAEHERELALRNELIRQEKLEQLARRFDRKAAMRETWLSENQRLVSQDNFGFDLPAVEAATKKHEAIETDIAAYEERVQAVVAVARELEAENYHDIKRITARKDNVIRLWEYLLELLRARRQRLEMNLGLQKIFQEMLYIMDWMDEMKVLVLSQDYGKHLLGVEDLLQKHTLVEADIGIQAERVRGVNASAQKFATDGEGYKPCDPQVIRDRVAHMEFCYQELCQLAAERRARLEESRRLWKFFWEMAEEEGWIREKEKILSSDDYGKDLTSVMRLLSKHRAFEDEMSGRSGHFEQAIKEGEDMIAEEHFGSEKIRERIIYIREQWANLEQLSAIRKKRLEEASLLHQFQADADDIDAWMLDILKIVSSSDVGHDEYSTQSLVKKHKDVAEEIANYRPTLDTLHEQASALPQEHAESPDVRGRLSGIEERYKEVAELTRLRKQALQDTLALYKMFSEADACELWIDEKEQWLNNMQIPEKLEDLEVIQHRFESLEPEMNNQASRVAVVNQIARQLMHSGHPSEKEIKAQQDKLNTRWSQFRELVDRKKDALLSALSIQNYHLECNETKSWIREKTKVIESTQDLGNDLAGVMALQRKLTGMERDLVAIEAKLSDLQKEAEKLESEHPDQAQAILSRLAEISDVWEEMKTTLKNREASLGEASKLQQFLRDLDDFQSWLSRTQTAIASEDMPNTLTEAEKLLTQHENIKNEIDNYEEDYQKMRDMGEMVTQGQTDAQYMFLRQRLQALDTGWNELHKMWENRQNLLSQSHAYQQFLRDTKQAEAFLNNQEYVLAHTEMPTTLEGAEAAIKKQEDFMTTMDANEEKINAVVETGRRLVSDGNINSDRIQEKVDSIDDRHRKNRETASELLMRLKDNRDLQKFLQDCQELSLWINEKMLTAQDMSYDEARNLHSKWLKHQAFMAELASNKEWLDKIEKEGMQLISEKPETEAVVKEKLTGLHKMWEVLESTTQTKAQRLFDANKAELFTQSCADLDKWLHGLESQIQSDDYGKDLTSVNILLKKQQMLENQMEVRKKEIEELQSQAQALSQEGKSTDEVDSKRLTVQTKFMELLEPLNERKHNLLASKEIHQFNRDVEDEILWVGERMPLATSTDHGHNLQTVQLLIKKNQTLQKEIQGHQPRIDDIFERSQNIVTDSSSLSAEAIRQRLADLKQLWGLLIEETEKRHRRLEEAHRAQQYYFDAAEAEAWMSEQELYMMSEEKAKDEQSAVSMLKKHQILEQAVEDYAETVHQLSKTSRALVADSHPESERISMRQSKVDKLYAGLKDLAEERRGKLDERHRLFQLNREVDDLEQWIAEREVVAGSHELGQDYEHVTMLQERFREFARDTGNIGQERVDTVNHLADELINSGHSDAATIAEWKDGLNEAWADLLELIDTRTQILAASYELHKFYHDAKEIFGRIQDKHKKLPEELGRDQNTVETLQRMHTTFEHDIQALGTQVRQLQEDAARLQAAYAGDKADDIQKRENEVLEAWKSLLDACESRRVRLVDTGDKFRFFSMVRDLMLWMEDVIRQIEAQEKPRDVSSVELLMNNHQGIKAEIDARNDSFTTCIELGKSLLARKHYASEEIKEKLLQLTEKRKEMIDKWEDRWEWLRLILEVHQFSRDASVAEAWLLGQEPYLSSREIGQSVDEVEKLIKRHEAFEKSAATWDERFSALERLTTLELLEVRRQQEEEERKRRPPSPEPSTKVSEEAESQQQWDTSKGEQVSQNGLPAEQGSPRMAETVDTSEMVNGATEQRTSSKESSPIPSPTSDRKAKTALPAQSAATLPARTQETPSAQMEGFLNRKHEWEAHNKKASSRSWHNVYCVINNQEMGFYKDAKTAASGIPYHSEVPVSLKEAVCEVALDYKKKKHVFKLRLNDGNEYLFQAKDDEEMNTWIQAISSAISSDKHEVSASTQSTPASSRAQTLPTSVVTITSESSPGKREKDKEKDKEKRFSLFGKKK
UniProt Q9ULZ2: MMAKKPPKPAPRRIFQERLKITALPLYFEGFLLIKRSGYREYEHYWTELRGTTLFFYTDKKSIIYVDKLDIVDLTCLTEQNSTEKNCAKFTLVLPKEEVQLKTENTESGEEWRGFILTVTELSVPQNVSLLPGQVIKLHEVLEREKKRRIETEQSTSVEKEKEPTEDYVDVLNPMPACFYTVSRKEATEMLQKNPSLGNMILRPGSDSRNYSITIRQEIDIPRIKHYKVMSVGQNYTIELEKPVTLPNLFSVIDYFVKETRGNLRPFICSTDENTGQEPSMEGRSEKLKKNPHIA
UniProt P42224: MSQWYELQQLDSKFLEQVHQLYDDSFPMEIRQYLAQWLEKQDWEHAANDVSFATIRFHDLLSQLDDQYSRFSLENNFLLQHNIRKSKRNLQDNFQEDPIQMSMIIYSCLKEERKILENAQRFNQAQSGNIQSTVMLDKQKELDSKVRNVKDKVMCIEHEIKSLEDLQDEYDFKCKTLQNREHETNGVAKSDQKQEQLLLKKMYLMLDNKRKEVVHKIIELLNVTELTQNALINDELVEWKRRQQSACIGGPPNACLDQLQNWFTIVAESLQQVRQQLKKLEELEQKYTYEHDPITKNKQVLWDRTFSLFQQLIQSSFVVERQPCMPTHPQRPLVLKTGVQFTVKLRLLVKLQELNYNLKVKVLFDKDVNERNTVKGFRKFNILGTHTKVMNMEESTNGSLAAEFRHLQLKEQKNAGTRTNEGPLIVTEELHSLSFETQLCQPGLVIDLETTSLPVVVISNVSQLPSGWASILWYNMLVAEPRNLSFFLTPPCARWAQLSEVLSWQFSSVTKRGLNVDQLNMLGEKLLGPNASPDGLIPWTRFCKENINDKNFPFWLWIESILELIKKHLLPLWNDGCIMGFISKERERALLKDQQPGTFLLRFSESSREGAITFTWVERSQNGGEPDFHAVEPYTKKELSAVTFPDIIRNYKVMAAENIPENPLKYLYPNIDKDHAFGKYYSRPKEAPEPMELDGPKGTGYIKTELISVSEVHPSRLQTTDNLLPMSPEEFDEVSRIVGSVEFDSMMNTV
UniProt Q9Y2D8: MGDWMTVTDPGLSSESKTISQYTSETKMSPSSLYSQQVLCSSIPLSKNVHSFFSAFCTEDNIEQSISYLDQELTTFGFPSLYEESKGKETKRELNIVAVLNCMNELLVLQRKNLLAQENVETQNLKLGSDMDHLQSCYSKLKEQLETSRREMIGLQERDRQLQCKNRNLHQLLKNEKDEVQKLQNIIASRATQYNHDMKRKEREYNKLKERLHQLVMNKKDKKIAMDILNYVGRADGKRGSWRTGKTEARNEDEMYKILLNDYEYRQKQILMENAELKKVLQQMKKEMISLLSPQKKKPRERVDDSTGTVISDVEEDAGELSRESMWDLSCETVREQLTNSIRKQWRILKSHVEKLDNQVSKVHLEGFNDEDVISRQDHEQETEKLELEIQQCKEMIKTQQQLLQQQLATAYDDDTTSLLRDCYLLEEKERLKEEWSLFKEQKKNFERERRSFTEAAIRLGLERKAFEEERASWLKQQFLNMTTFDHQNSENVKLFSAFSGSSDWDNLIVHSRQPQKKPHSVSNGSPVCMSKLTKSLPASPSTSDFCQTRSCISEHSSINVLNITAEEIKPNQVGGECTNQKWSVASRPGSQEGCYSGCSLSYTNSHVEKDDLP
UniProt Q56A73: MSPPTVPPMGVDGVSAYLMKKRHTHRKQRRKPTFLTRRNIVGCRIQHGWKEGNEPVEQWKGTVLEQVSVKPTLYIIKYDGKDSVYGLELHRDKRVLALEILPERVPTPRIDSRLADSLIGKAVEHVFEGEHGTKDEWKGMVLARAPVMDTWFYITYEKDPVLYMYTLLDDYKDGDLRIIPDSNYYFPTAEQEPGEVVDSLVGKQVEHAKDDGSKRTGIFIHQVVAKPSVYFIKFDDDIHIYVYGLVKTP
UniProt Q11201: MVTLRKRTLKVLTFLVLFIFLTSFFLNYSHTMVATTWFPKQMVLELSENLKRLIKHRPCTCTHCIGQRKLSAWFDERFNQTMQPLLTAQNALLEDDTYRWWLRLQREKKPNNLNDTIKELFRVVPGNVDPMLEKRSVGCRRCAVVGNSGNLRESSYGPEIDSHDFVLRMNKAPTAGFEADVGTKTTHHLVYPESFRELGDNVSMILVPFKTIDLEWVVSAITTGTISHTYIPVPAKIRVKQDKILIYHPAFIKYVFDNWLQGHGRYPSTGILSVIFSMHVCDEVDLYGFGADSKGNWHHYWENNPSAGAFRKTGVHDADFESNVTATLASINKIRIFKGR

Columns and labels:
Experiment in all cases: log2 fold change, soluble protein after heating vs DMSO (PISA); higher = thermal stabilisation; K562 lysate, 10 uM; active = over 0.2 and 3.5 SD of the protein, either way, in both replicates (recomputed)
[1] = compound: CN1CC[C@H](c2c(O)cc(O)c3c(=O)cc(-c4ccccc4Cl)oc23)[C@H](O)C1 [alvocidib]
Outline: (§1)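 K562 pellets were dounce-homogenised in PBS pH 7.4 containing 1 mM MgCl2, and the crude extract, at 1 mg/mL protein, was exposed to 10 μM compound for 30 min. Aliquots were heated for 3 min across 48°C-58°C, pooled, brought to 0.5% NP-40 at 4°C and spun at 21,000xg for 90 min, with the supernatant taken as soluble protein. TMTpro 16plex LC-MS/MS with equalised channel sums quantified that protein. Values are log-two fold changes in thermal stability relative to solvent controls, taken from duplicates.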

[2] = compound: CN1CCc2c(c3ccccc3n2Cc2ccc(C(=O)NO)cc2)C1 [Tubastatin A]
Outline: as §1

[3] = compound: CNc1nc(-c2ccc3c(N)n[nH]c3c2)cc(N2C[C@@H](C(=O)NC3CCCCC3)CC[C@H]2C)n1
Outline: as §1

[4] = compound: C[C@@H](Oc1cc(-c2cnn(C3CCNCC3)c2)cnc1N)c1c(Cl)ccc(F)c1Cl [crizotinib]
Outline: as §1

[5] = compound: C[C@H](C1=CC=C(C=C1)C(=O)NC2=C3C=CNC3=NC=C2)N
Outline: as §1

[6] = compound: C[C@H](Nc1ncnc2nc[nH]c12)c1cc2cccc(Cl)c2c(=O)n1-c1ccccc1 [duvelisib]
Outline: as §1

[7] = compound: Cc1cc(Nc2cc(CN3CCOCC3)c3nc(C)c(Cc4ccc(Cl)cc4F)n3n2)n[nH]1 [gandotinib]
Outline: as §1

[8] = compound: Cc1ccc(-n2nc(C(C)(C)C)cc2NC(=O)Nc2ccc(OCCN3CCOCC3)c3ccccc23)cc1 [doramapimod]
Outline: as §1

[9] = compound: Cc1cccc(CC(=O)N2CCc3c2ccc(-c2cn(C)c4ncnc(N)c24)c3F)n1
Outline: as §1

[10] = compound: CNC(=O)C1=CC=CC=C1NC2=NC(=NC=C2Cl)NC3=C(C=C(C=C3)N4CCOCC4)OC
Outline: as §1

[11] = compound: CNC(=O)c1ccc(Nc2ncc(C(F)(F)F)c(NCc3nccnc3N(C)S(C)(=O)=O)n2)cc1 [defactinib]
Outline: as §1

[12] = compound: COc1cc2nc(-c3cc(F)ccc3O)nc(N[C@@H]3CNC[C@H]3C(C)(C)O)c2cc1OC
Outline: as §1

[13] = compound: CS(=O)(=O)CCNCc1ccc(-c2ccc3ncnc(Nc4ccc(OCc5cccc(F)c5)c(Cl)c4)c3c2)o1 [lapatinib]
Outline: as §1

[14] = compound: CS(=O)(=O)N1CCN(Cc2cc3nc(-c4cccc5[nH]ncc45)nc(N4CCOCC4)c3s2)CC1 [pictilisib]
Outline: as §1

[15] = compound: Cc1ccc(NC(=O)c2ccc(CN3CC[C@H](N(C)C)C3)c(C(F)(F)F)c2)cc1Nc1nccc(-c2cncnc2)n1 [bafetinib]
Outline: as §1

[16] = compound: COC(=O)N[C@@H](C)CNc1nccc(-c2cn(C(C)C)nc2-c2cc(Cl)cc(NS(C)(=O)=O)c2F)n1 [encorafenib]
Outline: as §1

[17] = compound: COC(=O)[C@H](CCSC)NC(=O)C1=C(C=C(C=C1)NC[C@H](CS)N)C2=CC=CC=C2
Outline: as §1

[18] = compound: Cc1cc(Nc2cc(N3CCN(C)CC3)nc(Sc3ccc(NC(=O)C4CC4)cc3)n2)n[nH]1 [tozasertib]
Outline: as §1

[19] = compound: COc1cc(Nc2ncc3c(n2)-c2ccc(Cl)cc2C(c2c(F)cccc2OC)=NC3)ccc1C(=O)O [alisertib]
Outline: as §1

[20] = compound: COc1cc2ncnc(Nc3ccc(F)c(Cl)c3)c2cc1OCCCN1CCOCC1 [gefitinib]
Outline: as §1

Measured: log2 fold change

SRRD (UniProt Q9UH36)
inactive: [1] -0.039 | [2] 0.123 | [3] 0.091 | [4] -0.098 | [5] -0.054 | [6] 0.031 | [7] -0.003 | [8] -0.053 | [9] 0.18

ST13P4 (UniProt Q8IZP2)
inactive: [2] -0.053 | [10] -0.136 | [11] 0.12

SPP2 (UniProt Q13103)
inactive: [1] 0.02 | [12] 0.037 | [13] -0.05 | [14] -0.009 | [5] 0.025 | [7] 0.047 | [15] 0.05 | [9] -0.079

SPRTN (UniProt Q9H040)
inactive: [2] 0.052 | [11] 0.236 | [3] -0.034 | [16] 0.011 | [17] -0.231 | [6] -0.124 | [18] -0.085

SPRYD3 (UniProt Q8NCJ5)
inactive: [1] 0.214 | [2] -0.301 | [10] 0.172 | [14] -0.186 | [4] -0.07 | [5] -0.074 | [7] 0.04 | [8] 0.055 | [15] -0.024 | [9] 0.194

SSR2 (UniProt P43308)
inactive: [2] -0.028

SRD5A3 (UniProt Q9H8P0)
inactive: [2] -0.245 | [10] -0.115 | [11] -0.043 | [3] -0.208 | [16] 0.041 | [17] -0.506 | [19] 0.209 | [12] -0.077 | [20] -0.098 | [13] -0.433 | [14] 0.065 | [4] 0.104 | [6] 0.056 | [18] -0.057 | [8] 0.008 | [15] -0.091

SPINT1 (UniProt O43278)
inactive: [1] 0.02 | [10] -0.005 | [19] -0.007 | [12] -0.003 | [20] 0.058 | [13] -0.048 | [14] -0.023 | [4] 0.103 | [5] 0.04 | [7] 0.009 | [8] 0.096 | [15] -0.05 | [9] 0.004

Two successive entries already listed, quoted:
SSR2 (UniProt P43308)
inactive: [2] -0.028

SRD5A3 (UniProt Q9H8P0)
inactive: [2] -0.245 | [10] -0.115 | [11] -0.043 | [3] -0.208 | [16] 0.041 | [17] -0.506 | [19] 0.209 | [12] -0.077 | [20] -0.098 | [13] -0.433 | [14] 0.065 | [4] 0.104 | [6] 0.056 | [18] -0.057 | [8] 0.008 | [15] -0.091

(listing goes on)

SSBP4 (UniProt Q9BWG4)
inactive: [1] -0.063 | [11] 0.003 | [16] 0.161 | [17] -0.075 | [19] 0.032 | [12] 0.082 | [20] -0.049 | [13] 0.002 | [14] -0.053 | [4] 0.032 | [5] 0.079 | [7] 0.061 | [18] -0.149 | [8] -0.188 | [15] 0.043 | [9] -0.006

SPRY2 (UniProt O43597)
inactive: [10] 0.082

STARD4 (UniProt Q96DR4)
inactive: [1] 0.03 | [16] -0.089 | [17] 0.027 | [5] -0.053 | [7] 0.1 | [18] 0.021 | [9] 0.025

SPICE1 (UniProt Q8N0Z3)
inactive: [10] -0.013 | [11] -0.002 | [16] 0.064 | [17] 0.153 | [19] -0.376 | [20] 0.102 | [18] -0.047

SPTBN1 isoform 3 (UniProt Q01082)
inactive: [2] 0.021 | [10] 0.046 | [3] -0.145 | [16] 0.107 | [17] 0.048 | [19] 0.203 | [12] 0.093 | [20] -0.015 | [13] 0.032 | [4] 0.131 | [6] 0.092 | [18] -0.156 | [8] -0.001

SPRED2 (UniProt Q7Z698)
inactive: [19] -0.012 | [20] 0.049 | [14] -0.059 | [15] -0.076

SPTAN1 isoform 3 (UniProt Q13813)
inactive: [11] 0.001 | [16] 0.002 | [17] -0.146 | [14] 0.004 | [4] -0.16 | [18] -0.044 | [8] -0.05 | [15] 0.171

SSBP4 (UniProt U3KPY3)
inactive: [1] -0.103 | [11] -0.127 | [19] 0.122 | [20] -0.294 | [14] 0.026 | [5] -0.094 | [7] 0.171 | [15] -0.016 | [9] -0.053

STAP1 (UniProt Q9ULZ2)
inactive: [10] 0.102 | [3] -0.069 | [19] -0.134 | [20] 0.27 | [6] 0.078

SPC24 (UniProt K7ESQ2)
inactive: [1] 0.009 | [16] 0.05 | [17] -0.028 | [4] -0.019 | [5] -0.008 | [7] 0 | [18] -0.008 | [8] 0.125 | [9] -0.006

SPATA33 isoform 2 (UniProt Q96N06)
inactive: [1] 0 | [2] 0.014 | [11] 0.171 | [3] 0.118 | [16] -0.021 | [17] -0.041 | [19] 0.097 | [12] 0.061 | [20] 0.024 | [13] -0.019 | [14] -0.017 | [5] 0.177 | [6] -0.17 | [7] -0.333 | [18] 0.038 | [15] 0.108 | [9] 0.326

STAT1 isoform 2 (UniProt P42224)
inactive: [19] -0.029 | [20] -0.117 | [4] -0.02 | [8] -0.007

SSX2IP (UniProt Q9Y2D8)
inactive: [1] -0.184 | [2] -0.222 | [11] 0.085 | [16] 0.143 | [17] 0.138 | [19] -0.067 | [20] 0.067 | [5] 0.071 | [7] 0.147 | [18] -0.063 | [9] -0.01

SPOUT1 (UniProt Q5T280)
inactive: [2] -0.152 | [10] -0.037 | [11] -0.154 | [3] 0.019 | [16] 0.054 | [17] 0.164 | [19] 0.028 | [12] -0.024 | [20] 0.038 | [13] 0.001 | [6] 0.039 | [18] -0.054

SPIN4 (UniProt Q56A73)
inactive: [1] 0.174 | [11] -0.097 | [5] 0.294 | [7] 0.053 | [9] -0.086

STAB1 (UniProt Q9NY15)
inactive: [2] 0.1 | [10] -0.113 | [12] -0.077 | [13] 0.006 | [4] -0.376 | [8] 0.286

ST3GAL1 (UniProt Q11201)
inactive: [3] 0.175 | [4] 0.272 | [6] 0.1 | [8] -0.048

SRGAP2, A0A075B7B5
inactive: [4] 0.018 | [8] -0.028

SPATA7 (UniProt Q9P0W8)
inactive: [1] -0.406 | [10] 0.067 | [11] -0.056 | [16] -0.088 | [17] -0.021 | [19] -0.045 | [12] 0.079 | [20] 0.026 | [13] -0.048 | [14] -0.052 | [5] -0.602 | [7] 0.365 | [18] -0.168 | [15] -0.11 | [9] 0.351

STAM (UniProt A6NMU3)
inactive: [2] 0.032 | [10] 0.09 | [11] -0.017 | [3] 0.149 | [16] -0.107 | [17] 0.049 | [12] 0.088 | [13] 0.069 | [4] 0.047 | [6] -0.129 | [18] 0.025 | [8] -0.056

STARD8 isoform 2 (UniProt Q92502)
inactive: [2] -0.146 | [3] -0.126 | [16] 0.065 | [17] -0.048 | [14] -0.094 | [4] 0.079 | [6] 0.013 | [18] 0.018 | [8] -0.004 | [15] -0.23
